# Primary screen of a compound library

Amino acid sequences for entries named in this document (tags omitted). Residues count along the entry.
UniProt Q8IDJ8, 1-583: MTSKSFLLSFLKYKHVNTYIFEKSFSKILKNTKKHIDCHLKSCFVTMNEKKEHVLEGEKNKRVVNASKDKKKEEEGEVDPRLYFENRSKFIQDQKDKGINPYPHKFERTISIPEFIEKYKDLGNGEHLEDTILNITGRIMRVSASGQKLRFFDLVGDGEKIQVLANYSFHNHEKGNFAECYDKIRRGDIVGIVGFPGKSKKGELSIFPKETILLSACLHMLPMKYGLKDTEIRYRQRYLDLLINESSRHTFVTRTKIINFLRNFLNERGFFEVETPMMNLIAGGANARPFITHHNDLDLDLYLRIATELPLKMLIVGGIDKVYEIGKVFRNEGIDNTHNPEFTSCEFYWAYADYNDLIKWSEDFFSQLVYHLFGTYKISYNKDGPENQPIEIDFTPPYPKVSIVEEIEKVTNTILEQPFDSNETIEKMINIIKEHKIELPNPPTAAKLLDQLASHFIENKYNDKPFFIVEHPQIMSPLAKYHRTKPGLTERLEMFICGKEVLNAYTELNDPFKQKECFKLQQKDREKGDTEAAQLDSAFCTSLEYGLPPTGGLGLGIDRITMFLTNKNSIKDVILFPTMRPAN
UniProt Q4DA54, 1-478: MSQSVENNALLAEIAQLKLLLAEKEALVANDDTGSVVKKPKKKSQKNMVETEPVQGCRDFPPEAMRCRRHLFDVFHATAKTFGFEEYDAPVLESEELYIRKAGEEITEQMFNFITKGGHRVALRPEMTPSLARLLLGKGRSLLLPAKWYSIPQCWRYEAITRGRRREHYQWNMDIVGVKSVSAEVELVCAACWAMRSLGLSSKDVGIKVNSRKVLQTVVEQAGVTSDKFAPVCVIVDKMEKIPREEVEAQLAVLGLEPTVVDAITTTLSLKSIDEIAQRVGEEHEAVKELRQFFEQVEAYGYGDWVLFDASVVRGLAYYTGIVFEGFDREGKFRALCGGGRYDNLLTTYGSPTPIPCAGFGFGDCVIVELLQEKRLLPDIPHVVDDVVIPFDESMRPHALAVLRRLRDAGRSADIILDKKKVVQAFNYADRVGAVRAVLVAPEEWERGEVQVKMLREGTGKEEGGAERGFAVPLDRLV
UniProt I6X8D2, whole entry: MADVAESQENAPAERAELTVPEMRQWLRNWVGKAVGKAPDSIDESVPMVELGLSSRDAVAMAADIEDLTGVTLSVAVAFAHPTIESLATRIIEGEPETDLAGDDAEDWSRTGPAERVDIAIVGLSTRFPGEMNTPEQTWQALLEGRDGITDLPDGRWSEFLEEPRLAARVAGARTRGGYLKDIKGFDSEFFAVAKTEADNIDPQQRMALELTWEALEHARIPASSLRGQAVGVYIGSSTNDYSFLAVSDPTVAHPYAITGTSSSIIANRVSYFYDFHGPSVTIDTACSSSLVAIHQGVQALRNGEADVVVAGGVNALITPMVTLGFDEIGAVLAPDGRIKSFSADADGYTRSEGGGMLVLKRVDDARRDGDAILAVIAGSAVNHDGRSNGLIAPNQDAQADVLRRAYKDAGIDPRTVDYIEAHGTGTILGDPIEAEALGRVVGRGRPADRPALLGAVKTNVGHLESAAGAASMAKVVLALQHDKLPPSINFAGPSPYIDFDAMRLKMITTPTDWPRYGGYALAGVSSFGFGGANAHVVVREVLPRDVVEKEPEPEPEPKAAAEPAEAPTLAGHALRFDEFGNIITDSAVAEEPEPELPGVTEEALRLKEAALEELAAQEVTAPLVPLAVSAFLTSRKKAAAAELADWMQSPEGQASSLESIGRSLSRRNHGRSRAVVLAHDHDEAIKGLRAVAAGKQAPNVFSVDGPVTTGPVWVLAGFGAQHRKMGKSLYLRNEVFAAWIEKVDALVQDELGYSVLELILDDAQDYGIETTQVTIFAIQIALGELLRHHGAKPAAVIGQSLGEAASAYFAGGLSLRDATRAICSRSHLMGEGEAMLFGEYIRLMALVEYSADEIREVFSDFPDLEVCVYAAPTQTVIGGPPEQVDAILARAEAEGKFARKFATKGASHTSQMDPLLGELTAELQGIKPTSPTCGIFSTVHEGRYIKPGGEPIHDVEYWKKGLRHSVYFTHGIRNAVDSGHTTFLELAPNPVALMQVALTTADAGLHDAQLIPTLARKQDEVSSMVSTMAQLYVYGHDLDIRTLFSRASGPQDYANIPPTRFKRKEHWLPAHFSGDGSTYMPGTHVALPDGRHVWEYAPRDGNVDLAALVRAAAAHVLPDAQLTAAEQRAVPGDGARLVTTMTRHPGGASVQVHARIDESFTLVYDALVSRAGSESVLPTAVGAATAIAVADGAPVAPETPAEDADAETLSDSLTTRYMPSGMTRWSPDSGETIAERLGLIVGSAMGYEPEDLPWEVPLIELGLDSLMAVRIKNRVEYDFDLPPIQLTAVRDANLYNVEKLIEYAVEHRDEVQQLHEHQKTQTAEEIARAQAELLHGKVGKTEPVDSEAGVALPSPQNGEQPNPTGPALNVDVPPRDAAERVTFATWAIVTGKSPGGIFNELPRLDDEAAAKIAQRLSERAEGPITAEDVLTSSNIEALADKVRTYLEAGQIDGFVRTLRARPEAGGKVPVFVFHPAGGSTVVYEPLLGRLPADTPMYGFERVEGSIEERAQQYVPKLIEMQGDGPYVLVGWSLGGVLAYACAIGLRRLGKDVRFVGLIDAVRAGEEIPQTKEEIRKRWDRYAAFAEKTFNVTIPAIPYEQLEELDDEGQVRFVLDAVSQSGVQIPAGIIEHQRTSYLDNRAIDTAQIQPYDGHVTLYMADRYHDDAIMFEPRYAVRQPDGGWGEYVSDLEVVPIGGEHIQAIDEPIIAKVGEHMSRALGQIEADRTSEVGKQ

From ChEMBL document CHEMBL3988442, “University of Dundee, Small-Polar-MMV Screening Library” (2021).

A: 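Lysine-tRNA ligase, Plasmodium falciparum 3D7 (UniProt Q8IDJ8). Enzyme assay of the cytosolic lysyl-tRNA synthetase in 384-well plates, read by luminescence. Concentration: 30 µM. Direction is inferred from only a few compounds that gave an IC50; most scored high, so higher reads as stronger inhibition. Of about 69,000 compounds tested this way, about 49 (0.071%) reached 50% or more in at least one test.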
B: 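Histidine-tRNA ligase, Trypanosoma cruzi CL Brener (UniProt Q4DA54). Enzyme assay of histidyl-tRNA synthetase; the read-out is not stated. Tested at 30 µM. Direction is inferred from retests: higher values go with stronger inhibition. Size under these conditions: about 69,000 compounds, about 31 of them at 50% or above in at least one test.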
C: 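Cell assay of Leishmania donovani living inside macrophages; the read-out is not stated. Concentration: 30 µM. The record gives no direction; compounds that gave an IC50 in retests scored well above the rest, so higher reads as stronger inhibition. About 69,000 compounds were tested under these conditions; 1.5% (about 1,000) showed 50% or more at least once.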
D: 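Enzyme assay of the thioesterase domain of polyketide synthase 13; the read-out is not stated. Target: Polyketide synthase Pks13, Mycobacterium tuberculosis (UniProt I6X8D2). Tested at 30 µM. Higher reads as stronger inhibition (inferred from which compounds were picked for retests). About 67,000 compounds were tested under these conditions; 0.46% (about 300) showed 50% or more at least once.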

Values are the deposited “Percent Effect”, in %. The record does not define 0% and 100%; most values in the screen are far below 50% and negative numbers occur (in some assays of this library far below -100). The compounds are a random part of those screened. Two or more numbers in one place are separate tests of the same structure; such repeats can differ widely. A dash means the value is not listed here; it may have been measured.

| Compound | A | B | C | D |
|---|---|---|---|---|
| `c1ccc(-n2cc(CNCC3CCCN3c3cccnn3)cn2)cc1` (stereo not drawn) | 1.058 | 10.98 | 30.8 | -19.58 |
| `NC(=O)CN1CCN(c2ccnc3c(F)ccc(F)c23)CC1` | 2.838 | 3.03 | 19.55 | -24.21 |
| `CN(C)CCN1CCC2(CCCN(Cc3cccn3C)C2)C1=O` (stereo not drawn) | 5.407 | 8.163 | - | 4.514 |
| `COC(=O)c1ccc(C2CC(=O)Nc3c2cnn3C)cc1` (stereo not drawn) | -2 | -2.41 | -3.257 & -43.94 | -1.259 |
| `Cc1ccc(-c2nnc(CN3CCOC(Cn4cccn4)C3)o2)cc1` (stereo not drawn) | 4.255 | 5.263 | 37.23 | -27.39 |
| `COc1ccccc1CN(CC1CCCO1)C(=O)c1csnn1` (stereo not drawn) | -0.05923 | 1.026 | -2.731 | -31.99 |
| `CC(=O)N1CCC(C(=O)N2CCCC(Cc3cccc(C)n3)C2)CC1` (stereo not drawn) | 0.1152 | 2.985 | 5.352 & -0.3215 | -6.711 |
| `O=C(c1ccncn1)N1C[C@@H]2CN(Cc3cccnc3)CCO[C@@H]2C1` | 1.994 | 10.74 | - | -2.193 |
| `COc1ccc(CNC(=O)Nc2ccc(CN3CCOC3=O)cc2)cc1` | 0.7882 | 2.116 | -1.553 | -19.63 |
| `O=C(NCCOCC(F)(F)F)c1ccc(-c2ccccc2)[nH]c1=O` | 0.8822 | 10.17 | -33.68 | 42.07 |
| `COc1ccc(Cn2ccnc2)cc1F` | 0.806 | 5 | -19.5 | -2.209 |
| `NC(=O)C1CCN(CCc2ccc(NC(=O)C3CCC3)cc2)CC1` | 0.9716 | -1.149 | 13.29 | -5.874 |
| `CN1CCC(CNC(=O)NCc2ccc(N(C)C)cc2)CC1` | 6.976 | 7.216 | 21.7 | -17.08 |
| `COc1nc2ccn(CCc3cnccn3)c(=O)c2cc1C#N` | 2.947 | 0 | -5.985 | 2.843 |
| `N#Cc1cccc(S(=O)(=O)N2CCCCC2C(N)=O)c1` (stereo not drawn) | 4.46 | 5 | 18.21 | -15.63 |
| `CCc1ccc(NS(=O)(=O)c2cc3c(c(C(=O)O)c2)OCCO3)cc1` | -1.029 | 2.817 | 21.14 | -8.34 |
| `Cc1nn(C)c(Oc2cccc(F)c2)c1NC(=O)C1CCOCC1` | 2.925 | -0.5618 | -2.589 | -24.71 |
| `O=C1CCC2(CCCN(C(=O)C3CCCC3)C2)CN1CCc1c[nH]cn1` (stereo not drawn) | 11.16 | 4.95 | 7.521 | -48.14 |
| `Cn1nccc1-c1ccc2nc(C3CCN(CC4CC4)CC3)nn2c1` | 0.6605 | 5.714 | - | -15.81 |
| `Cc1noc(C)c1CCC(=O)N1CCCC(n2cccn2)C1` (stereo not drawn) | 0.2229 | 0.578 | 3.903 | -15.2 |
| `CC(C)C1CCC(N2CCN(CCCS(C)(=O)=O)CC2)CC1` (stereo not drawn) | 4.748 | 8.287 | 2.755 | -21.77 |
| `COc1ncccc1NC(=O)NCC1CC1` | 2.053 | 5.102 | 45.02 | -26.15 |
| `[H][C@@]12CCN(C[C@@H]1CN(C)c1ccccc1)[C@@H](CNC(=O)NC(C)C)C2` | - | - | -3.856 | - |
| `CC(C)c1cc(NCC(O)CO)n2nccc2n1` (stereo not drawn) | -4.117 | 0 | 9.396 | -13.21 |
| `O=C(O)C(F)(F)F.[H][C@]12CCC[C@@H](CNc3ccccn3)[C@@]1([H])CN(Cc1nccs1)C2` | - | - | 34.91 | - |
| `Cc1nc[nH]c1CN1CCCN(c2nc3ccccc3s2)CC1` | 3.285 | 1.293 | 20.65 | -29.89 |
| `O=C(NCc1cccnc1)[C@H]1CC[C@@H]2[C@@H](CCN2c2ncccn2)O1` | -0.3839 | 2.041 | - | -14.92 |
| `CNC(=O)c1csc(-c2cccnc2)n1` | 2.364 | 7.955 | 39.5 | 15.36 |
| `CSc1cccc(CN(C)C(=O)CN2CCN(c3ncccn3)CC2)c1` | 4.14 | 16.09 | 32.26 | - |
| `CC(C)N(C)[C@@H]1CCN(S(C)(=O)=O)[C@H]1Cc1ccccc1` | 2.074 | 6.667 | 36.29 | 5.252 |
| `Cc1cn(Cc2ccc(F)cc2)nc1N` | 1.404 | 2.312 | 7.688 | 7.696 |
| `CCN(CC(=O)Nc1cc(Cl)ccc1C)C(=O)c1ccncc1` | 8.385 | 4.867 | 7.915 | -1.029 |
| `O=C(c1nn[nH]c1Nc1cccc(Cl)c1)N1CCSCC1` | -0.4914 | -4.386 | -0.347 | -129.3 |
| `Cn1nc2c(cc1=O)CN(c1ncnc3ccsc13)CC2` | 31.17 | 21.67 | 15.92 | -17.51 |
| `OCCN1CCN(Cc2coc(-c3cccc(F)c3)n2)CC1` | 2.607 | 4.023 | 24.34 | -16.07 |
| `OCCN1CCC2(CC1)CC(NCc1ccccn1)c1ccccc1O2` (stereo not drawn) | -4.274 | 0 | - | -1.159 |
| `c1cc(CN2CCN(Cc3ccon3)C3(CCCCC3)C2)no1` | 7.933 | 4.706 | 15.07 | 5.036 |
| `O=c1cc(Cn2cncn2)nc2n1CCCN(CCN1CCCC1)C2` | 2.084 | 5.6 | - | -11.72 |
| `NC(=O)CN1CCN(CC2CC2)c2ccccc21` | 1.33 | 17.72 | -22.99 | 12.19 |
| `Cc1ccn2cc(C(=O)N3CCCC3c3c(C)nn(C)c3C)nc2c1` (stereo not drawn) | 0.2903 | 2.632 | -6.69 | -5.603 |
| `CNc1cc2c(nn1)CCN(C(=O)c1cc(C)n(C3CC3)c1C)C2` | -2.725 | 10.7 | 2.294 | -12.01 |
| `[H][C@]12CN(CC(=O)N(C)C)C(=O)[C@@]1([H])CN(c1cc(OC)ncn1)C2` | - | - | 3.116 | - |
| `O=C1NCCCCC1NC(=O)C1(c2ccc3c(c2)OCCO3)CCCC1` (stereo not drawn) | -6.765 | 4.082 | -13.64 | -15.08 |
| `Cc1ccc(CN2CCC3(CC2)NC(=O)CC3c2ccncc2)cc1C.O=C(O)C(F)(F)F.O=C(O)C(F)(F)F` (stereo not drawn) | - | - | 10.96 | - |
| `O=C(C1CCCC1)N1CC2(CCN(C3COC3)C2)OCc2ccccc21` (stereo not drawn) | 1.074 | 5.325 | 3.133 | -3.308 |
| `Cl.c1cc(CNCc2ccc(-n3cncn3)nc2)cc(OC2CCCC2)c1` | - | - | 3.014 | - |
| `COCc1noc(CNc2nc(C3CCCC3)nc3c2CCNCC3)n1` | -2.292 | 2.381 | 8.376 | -8.267 |
| `CN(C)c1cc(C2CCCN2Cc2ccccc2OCC(=O)O)ccn1` (stereo not drawn) | 2.366 | 2.247 | -23.97 | -0.6707 |
| `Cc1nc(CCNC(=O)NC(C)c2ccc3c(c2)OCCO3)cs1` (stereo not drawn) | 2.655 | 9.292 | 9.359 | -9.036 |
| `CCn1ncc2c1CCCC2NCc1cc(OC)cc(OC)c1` (stereo not drawn) | 0.2762 | 2.857 | 1.972 | -1.343 |
| `CCCS(=O)(=O)NC(=O)c1sc(C2CCCC2)nc1C` | 2.473 | 4.545 | 11.93 | -15.12 |
| `O=C1C[C@H]2CC[C@@H](CN1)N2c1cc(-c2ccccc2F)nc2ccnn12` | 2.005 | 4.741 | - | 6.916 |
| `CC(=O)N(C)c1nc(CN2CCCCC2Cn2cncn2)cs1` (stereo not drawn) | -2.608 | 3.817 | -8.321 | -10.93 |
| `O=C(O)C(F)(F)F.[H][C@@]12OCCN(Cc3ccoc3)[C@@]1([H])CC[C@H]2OCC` | - | - | 17.82 | - |
| `CC(C)c1nc(O)c2nnn(C[C@H]3CCCN(Cc4ccsc4)C3)c2n1` | 0.9734 | 3.846 | 2.347 | 6.565 |
| `CCc1ccccc1C(=O)N1CCN(S(C)(=O)=O)[C@@H](C)C1` | 3.35 | -0.8264 | 7.625 | 40.14 |
| `CC(C)C(=O)N1CCC2(CC1)NC(=O)[C@H]1CN(C(=O)N(C)C)C[C@H]12` | 5.897 | 0 | - | -9.059 |
| `O=C(c1ccccc1OCC1CC1)N1CCCC1Cn1cccn1` (stereo not drawn) | -6.607 | 4.202 | -18.51 | -9.308 |

The last 5 entries again:

{"compound": "O=C(O)C(F)(F)F.[H][C@@]12OCCN(Cc3ccoc3)[C@@]1([H])CC[C@H]2OCC", "C": 17.82}
{"compound": "CC(C)c1nc(O)c2nnn(C[C@H]3CCCN(Cc4ccsc4)C3)c2n1", "A": 0.9734, "B": 3.846, "C": 2.347, "D": 6.565}
{"compound": "CCc1ccccc1C(=O)N1CCN(S(C)(=O)=O)[C@@H](C)C1", "A": 3.35, "B": -0.8264, "C": 7.625, "D": 40.14}
{"compound": "CC(C)C(=O)N1CCC2(CC1)NC(=O)[C@H]1CN(C(=O)N(C)C)C[C@H]12", "A": 5.897, "B": 0, "D": -9.059}
{"compound": "O=C(c1ccccc1OCC1CC1)N1CCCC1Cn1cccn1", "stereo": "stereo not drawn", "A": -6.607, "B": 4.202, "C": -18.51, "D": -9.308}